At least one read-out could not be matched to a standard name with certainty.
Legend:
Experiment in all cases: Test B pre-/postemergence herbicide test
Details in all cases: Table B; rate not given; (Compounds 49, 168, 346); scale 0-100
morningglory = type: in vivo, Ipomoea coccinea
Text: (§1) Seeds selected from barnyardgrass (Echinochloa crus-galli (L.) Beauv.), Surinam grass (Urochloa decumbens (Staph) R. D. Webster, previously named Brachiaria decumbens Stapf), cocklebur (Xanthium strumarium L.), corn (Zea mays L.), large crabgrass (Digitaria sanguinalis (L.) Scop.), giant foxtail (Setaria faberi Herim.), lambsquarters (Chenopodium album L.), morningglory (Ipomoea coccinea L.), pigweed (Amaranthus retroflexus L.), rice (Oryza sativa L.) and velvetleaf (Abutilon theophrasti Medik.) were planted and treated preemergence with test chemicals formulated in a non-phytotoxic solvent mixture which included a surfactant.
(§2) At the same time, plants selected from these crop and weed species and also blackgrass (Alopecurus myosuroides Huds.), wheat (Triticum aestivum L.) and wild oat (Avena fatua L.) were treated with postemergence applications of test chemicals formulated in the same manner. Plants ranged in height from 2 to 18 cm (1- to 4-leaf stage) for postemergence treatments. […] Treated plants and controls were maintained in a greenhouse for 13 to 15 days, after which time all species were compared to controls and visually evaluated. […]

velvetleaf = type: in vivo, Abutilon theophrasti
Text: as §1, §2

large crabgrass = type: in vivo, Digitaria sanguinalis
Text: as §1, §2

pigweed = type: in vivo, Amaranthus retroflexus
Text: as §1, §2

giant foxtail = type: in vivo, Setaria faberi
Text: as §1, §2

Surinam grass = type: in vivo, Urochloa decumbens
Text: as §1, §2

lambsquarters = type: in vivo, Chenopodium album
Text: as §1, §2

Compound: CCc1cn(C(C)(C)C)nc1C(=O)Nc1cccc(C(=O)N(CC)CC)c1 [Compound 168, N-[3-[(diethylamino)carbonyl]phenyl]-1-(1,1-dimethylethyl)-4-ethyl-1H-pyrazole-3-carboxamide]
- Morningglory plant response rating (morningglory): 0
- Velvetleaf plant response rating (velvetleaf): 10
- Crabgrass, Large plant response rating (large crabgrass): 90
- Pigweed plant response rating (pigweed): 90
- Foxtail, Giant plant response rating (giant foxtail): 0
- Surinam Grass plant response rating (Surinam grass): 0
- Lambsquarters plant response rating (lambsquarters): 50

— patent publication US20060069132A1, “Azolecarboxamide herbicides” (priority 2004, published 2006)
